No constants are given. Whether binding was seen depends on the method and setting. Some binding calls cover weakened binding; strength is not graded here. Where a sequence is shown, tags or fusion partners need not be part of it.
Experiments:
[1] = target: T1, MBP-Mlh2 (chain of the MBP-Mlh1/MBP-Mlh2 complex) (S. cerevisiae) (UniProt Q07980); assay: cross-linking; XL-MS with DSBU of the 5-subunit Mer3/Mlh1/Mlh2/Top3/Rmi1 complex, proteins 3 μM, 1 h at 25°C; both purified
T1 sequence: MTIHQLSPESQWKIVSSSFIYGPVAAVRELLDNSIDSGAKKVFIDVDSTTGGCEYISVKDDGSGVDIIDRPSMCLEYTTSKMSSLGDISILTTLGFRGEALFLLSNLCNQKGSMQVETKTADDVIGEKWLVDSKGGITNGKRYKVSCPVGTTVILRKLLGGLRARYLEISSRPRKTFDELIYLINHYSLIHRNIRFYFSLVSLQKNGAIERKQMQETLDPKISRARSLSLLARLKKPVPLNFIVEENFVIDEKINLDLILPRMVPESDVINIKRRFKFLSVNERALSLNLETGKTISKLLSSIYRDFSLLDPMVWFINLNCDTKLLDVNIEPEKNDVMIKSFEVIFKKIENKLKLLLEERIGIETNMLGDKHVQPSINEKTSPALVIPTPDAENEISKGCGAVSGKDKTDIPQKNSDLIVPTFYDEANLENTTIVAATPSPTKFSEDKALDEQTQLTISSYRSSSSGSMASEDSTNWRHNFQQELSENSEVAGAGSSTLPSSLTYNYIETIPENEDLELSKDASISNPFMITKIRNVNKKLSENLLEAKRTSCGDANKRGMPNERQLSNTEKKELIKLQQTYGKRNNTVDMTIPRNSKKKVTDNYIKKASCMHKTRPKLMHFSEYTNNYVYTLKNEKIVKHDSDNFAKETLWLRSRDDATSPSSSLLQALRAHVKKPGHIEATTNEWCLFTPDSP

GST-Rmi1 (S. cerevisiae) = target: T2, GST-Rmi1 (S. cerevisiae) (UniProt Q02685); assay: co-purification (glutathione affinity, ResourceS, SEC); untagged Top3 co-expressed with GST-Rmi1 in Hi5 cells and purified through GST-Rmi1
T2 sequence: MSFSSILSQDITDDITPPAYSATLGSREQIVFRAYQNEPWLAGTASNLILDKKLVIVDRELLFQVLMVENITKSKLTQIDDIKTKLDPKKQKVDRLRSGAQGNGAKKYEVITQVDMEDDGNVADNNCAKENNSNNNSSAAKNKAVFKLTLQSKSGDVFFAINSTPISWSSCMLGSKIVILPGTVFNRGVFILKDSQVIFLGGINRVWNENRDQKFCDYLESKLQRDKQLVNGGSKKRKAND

- binding [1]: binds
- binding (GST-Rmi1 (S. cerevisiae)): binds
B1: Top3, untagged (chain of the Top3/Rmi1 complex) (enzyme, UniProt P13099 1-656)
chain: MKVLCVAEKNSIAKAVSQILGGGRSTSRDSGYMYVKNYDFMFSGFPFARNGANCEVTMTSVAGHLTGIDFSHDSHGWGKCAIQELFDAPLNEIMNNNQKKIASNIKREARNADYLMIWTDCDREGEYIGWEIWQEAKRGNRLIQNDQVYRAVFSHLERQHILNAARNPSRLDMKSVHAVGTRIEIDLRAGVTFTRLLTETLRNKLRNQATMTKDGAKHRGGNKNDSQVVSYGTCQFPTLGFVVDRFERIRNFVPEEFWYIQLVVENKDNGGTTTFQWDRGHLFDRLSVLTFYETCIETAGNVAQVVDLKSKPTTKYRPLPLTTVELQKNCARYLRLNAKQSLDAAEKLYQKGFISYPRTETDTFPHAMDLKSLVEKQAQLDQLAAGGRTAWASYAASLLQPENTSNNNKFKFPRSGSHDDKAHPPIHPIVSLGPEANVSPVERRVYEYVARHFLACCSEDAKGQSMTLVLDWAVERFSASGLVVLERNFLDVYPWARWETTKQLPRLEMNALVDIAKAEMKAGTTAPPKPMTESELILLMDTNGIGTDATIAEHIDKIQVRNYVRSEKVGKETYLQPTTLGVSLVHGFEAIGLEDSFAKPFQRREMEQDLKKICEGHASKTDVVKDIVEKYRKYWHKTNACKNTLLQVYDRVKASM

— paper PMC10201424
